Measurements published in publication PMC8213820.
These are yes or no findings as the source states them, for the method shown. Binding seen in cells or lysates may run through a third protein. These calls come from enrichment with a bait or labelling near it, and not all partners need be listed.

The chains behind the UniProt entries cited, without tags or fusion partners. Residues count along the entry.
UniProt B6KAM0, residues 67-569: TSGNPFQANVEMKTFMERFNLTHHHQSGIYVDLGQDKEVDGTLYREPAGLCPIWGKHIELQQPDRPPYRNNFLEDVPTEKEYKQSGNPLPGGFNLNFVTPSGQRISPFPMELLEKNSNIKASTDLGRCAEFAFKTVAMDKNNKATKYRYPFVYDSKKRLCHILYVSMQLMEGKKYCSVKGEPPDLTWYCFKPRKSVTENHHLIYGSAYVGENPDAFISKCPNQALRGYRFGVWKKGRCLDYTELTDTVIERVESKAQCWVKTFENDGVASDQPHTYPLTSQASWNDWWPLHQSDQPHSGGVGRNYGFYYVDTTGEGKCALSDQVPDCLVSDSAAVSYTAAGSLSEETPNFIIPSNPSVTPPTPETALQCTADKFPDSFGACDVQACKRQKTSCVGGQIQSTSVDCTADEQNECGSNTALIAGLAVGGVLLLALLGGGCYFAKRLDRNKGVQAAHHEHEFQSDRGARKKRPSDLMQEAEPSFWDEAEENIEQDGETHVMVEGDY

Columns and labels:
[1] = target: T1, RON4-3Ty (Toxoplasma gondii) (UniProt B6KJ32); assay: affinity purification with mass spectrometry
T1 sequence: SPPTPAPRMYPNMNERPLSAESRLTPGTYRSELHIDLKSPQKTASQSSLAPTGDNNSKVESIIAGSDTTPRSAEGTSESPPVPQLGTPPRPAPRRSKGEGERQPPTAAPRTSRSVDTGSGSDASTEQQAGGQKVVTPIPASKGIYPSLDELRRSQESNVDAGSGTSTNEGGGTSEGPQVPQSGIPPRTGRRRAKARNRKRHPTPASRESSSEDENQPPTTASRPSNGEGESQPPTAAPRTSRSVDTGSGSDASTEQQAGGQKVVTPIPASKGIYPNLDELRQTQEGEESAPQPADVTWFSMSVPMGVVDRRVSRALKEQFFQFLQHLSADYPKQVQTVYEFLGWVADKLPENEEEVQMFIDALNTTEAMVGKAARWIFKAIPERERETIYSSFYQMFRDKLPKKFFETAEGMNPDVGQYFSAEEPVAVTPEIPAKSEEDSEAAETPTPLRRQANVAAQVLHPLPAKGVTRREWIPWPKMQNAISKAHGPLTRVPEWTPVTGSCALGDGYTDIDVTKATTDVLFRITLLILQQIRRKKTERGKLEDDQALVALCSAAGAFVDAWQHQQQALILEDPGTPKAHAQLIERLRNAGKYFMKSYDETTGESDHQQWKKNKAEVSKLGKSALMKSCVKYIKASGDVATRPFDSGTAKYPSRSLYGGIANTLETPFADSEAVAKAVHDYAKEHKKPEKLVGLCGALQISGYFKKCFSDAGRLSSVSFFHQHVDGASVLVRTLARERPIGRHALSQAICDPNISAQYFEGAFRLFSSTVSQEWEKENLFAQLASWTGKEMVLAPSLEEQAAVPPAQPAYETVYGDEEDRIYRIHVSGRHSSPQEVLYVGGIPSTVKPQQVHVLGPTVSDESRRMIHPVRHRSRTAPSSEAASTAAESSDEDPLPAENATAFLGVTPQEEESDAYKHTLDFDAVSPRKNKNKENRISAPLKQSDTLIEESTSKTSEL

[2] = target: T2, RON4, endogenous in T. gondii tachyzoites (Toxoplasma gondii (endogenous in RH tachyzoites)) (UniProt B6KJ32); assay: affinity purification with mass spectrometry
T2 sequence: T1 sequence

Substance | binding [1] | binding [2]
AMA1 (from UniProt B6KAM0) | binds | –
microneme protein AMA1 (from UniProt B6KAM0) | – | binds
